# Results reported in PubChem BioAssay AID1259354 (Paczesny and Yang Labs, IUPUI and University of Michigan, 2018).
# The chains behind the UniProt entries cited, without tags or fusion partners. Where a name states a change or a piece, a line headed by the entry shows the natural chain unless it says otherwise.
# UniProt Q01638: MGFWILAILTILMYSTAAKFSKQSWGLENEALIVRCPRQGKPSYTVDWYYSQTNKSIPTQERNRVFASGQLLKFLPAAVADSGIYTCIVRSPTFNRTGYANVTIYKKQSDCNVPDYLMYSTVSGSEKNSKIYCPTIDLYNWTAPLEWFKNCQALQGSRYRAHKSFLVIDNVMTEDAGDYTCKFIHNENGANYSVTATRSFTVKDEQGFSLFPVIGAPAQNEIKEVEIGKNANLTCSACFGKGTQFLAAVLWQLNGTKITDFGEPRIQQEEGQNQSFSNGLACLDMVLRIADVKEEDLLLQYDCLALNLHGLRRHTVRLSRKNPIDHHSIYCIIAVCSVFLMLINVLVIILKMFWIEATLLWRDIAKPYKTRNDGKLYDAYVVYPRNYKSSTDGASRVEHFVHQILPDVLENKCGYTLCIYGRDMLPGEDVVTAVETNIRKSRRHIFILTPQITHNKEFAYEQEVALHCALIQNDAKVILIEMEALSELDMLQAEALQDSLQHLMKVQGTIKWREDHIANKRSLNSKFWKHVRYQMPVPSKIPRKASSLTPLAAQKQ
# The campaign covered roughly 78,000 compounds. About 1,800 (2.3%) were called active. The shares of active, inactive and inconclusive entries below differ from those in the screen. Rule as the data show it: active = inhibition above about 30%; inconclusive = mostly about 10% to 28%; inactive = weaker than that.
# Biological target: Interleukin-1 receptor-like 1 (Homo sapiens) (UniProt Q01638)
# Experiment: blocks human ST2 binding to IL-33, primary screen, biochemical, AlphaLISA (AID 1259354)
# Settings: AlphaLISA ST2-Fc/biotin-IL-33 interaction, 1 h; at 17 µM, active compounds read high
row,Compound,inhibition
1,c1ccc(C2NCCn3cccc32)cc1 (stereo not given),inconclusive: 17%
2,CC(C)(C)c1ccc(-c2cc(C[C@H]3CNCC[C@H]3CC(=O)N3CCC(Cc4ccccc4)CC3)no2)cc1,inconclusive: 20%
3,CC1=C(C(=O)OCCCc2ccccc2)C(c2ccc(C)s2)NC(=O)N1C (stereo not given),inactive
4,CC(=O)Nc1ccc(Cl)c(C(=O)N2[C@@H]3CC[C@H]2CC(O)C3)c1 (stereo not given in full),inconclusive: 10%
5,O=C(NCc1ccco1)c1ccc(Cl)cc1Cl,inconclusive: 23%
6,COc1ccc(C2(C(=O)N3CCCC(N(C)C)CC3)CCCC2)cc1 (stereo not given),inconclusive: 29%
7,COc1ccc(NC(=O)N2C[C@@H]3C[C@H](C2)c2ccc(NC(=O)C4CCCCC4)c(=O)n2C3)cc1,inconclusive: 12%
8,Cc1nnsc1CN(C)Cc1ccc(C(=O)Nc2nc(C)n(C)n2)cc1,inactive
9,COc1ccc2c(c1)CN(c1ccc(C)cc1C)CO2,inconclusive: 25%
10,CN(CCn1ccc2ccccc21)C(=O)C1CCOCC1,inconclusive: 16%
11,COc1cccc(C2CC(=O)C3=C(C2)Nc2ccccc2NC3c2ccc(C(F)(F)F)cc2)c1 (stereo not given),inconclusive: 21%
12,COc1ccc(-c2cc3ccccc3[nH]2)cc1,inactive
13,C#CCNC(=O)CC[C@H]1CNC(=O)[C@@H]2[C@@H](CCN2Cc2cccs2)N1C,inconclusive: 19%
14,Cc1ocnc1C(=O)N1CCC(N2CCCC(C(=O)N3CCOCC3)C2)CC1 (stereo not given),inactive
15,Cc1cccc(NS(=O)(=O)c2cc(C(=O)Nc3ccccc3C)ccc2C)c1,inactive
16,CCOc1ccc(S(=O)(=O)Nc2c(Cl)cccc2C(F)(F)F)c2cccnc12,inactive
17,CCc1cccc(OCCCN2CCN(C)CC2)c1,inactive
18,O=C(N/C(=C\c1ccccc1F)C(=O)N1CC2CC(C1)c1cccc(=O)n1C2)c1ccccc1 (stereo not given),inactive
19,O=C(N[C@H]1CCCCNC1=O)c1ccccc1OC1CCN(Cc2ccccn2)CC1,inactive
20,Cc1ccc(OCC(=O)Nc2ccccc2CO)cc1C,inactive
21,COc1cc(C=Nc2cccc3c(=O)[nH][nH]c(=O)c23)c([N+](=O)[O-])cc1OC,inconclusive: 11%
22,CN1CCCCc2c1nc1ccccc1c2N,inactive
23,CCc1nnc(NC(=O)c2ccc(S(=O)(=O)N(CC)c3ccccc3)cc2)o1,inconclusive: 15%
24,CCN(Cc1ccncc1)C(=O)CC1C(=O)NCCN1Cc1cccc(C(F)(F)F)c1 (stereo not given),inactive

row,Compound,inhibition
1,CN1C[C@@H](NC(=O)c2cccs2)C[C@H]1C(=O)NCCc1ccccc1Cl,inconclusive: 13%
2,CSCc1noc(CNc2nccc(-c3cn(C)nc3C)n2)n1,inconclusive: 19%
3,COc1cc(OC)c(C(=O)CCC(=O)O)cc1OC,inconclusive: 19%
4,Cc1ccc(N2NC(=O)/C(=C/c3ccc(N4CCOCC4)cc3)C2=O)cc1Cl,inconclusive: 17%
5,COc1ccc2c(=O)c(-c3csc(C)n3)c(C(F)(F)F)oc2c1,inactive
6,O=S1(=O)CCC(S(=O)(=O)N2CCCCC2)C1 (stereo not given),inconclusive: 25%
7,Cc1cnc2c(C(=O)NC(C)c3nncn3C(C)C)cnn2c1 (stereo not given),inconclusive: 13%
8,O=C(O)c1ccccc1C1CCN(C(=O)c2ccc(-n3cnnc3)cc2)C1 (stereo not given),inactive
9,c1cc2c(cc1CN1CCN(c3nc4nonc4nc3N3CCSCC3)CC1)OCO2,inconclusive: 17%
10,CCOc1ccc(C(=O)N2CCN(c3ccc([N+](=O)[O-])cc3Cl)CC2)cc1Br,inconclusive: 20%
11,Cc1ccc(N=Cc2cc3c(cc2[N+](=O)[O-])OCO3)cc1I,inconclusive: 16%
12,O=C(CSc1nc2c(c(=O)n1-c1ccc(F)cc1)SCC2)NCc1ccc(F)cc1,inactive
13,O=C(c1ccc(NCc2ccoc2)nc1)N1CCC(N2CCOCC2)CC1,inactive
14,Cc1ccc(SC(C)C(=O)N(C)Cc2snnc2C)cc1 (stereo not given),inconclusive: 16%
15,Cc1cccc(-c2cccc(-c3ccn(C(C)C(=O)Nc4nccs4)n3)c2)n1 (stereo not given),inconclusive: 17%
16,O=C(CNC(=O)c1cccs1)NCc1ccco1,inactive
17,Cc1cc(OC(=O)c2cc3ccccc3oc2=O)cc(C)c1Cl,inconclusive: 13%
18,CCCc1cc(N2CCCN(Cc3ccccn3)CC2)nc(C)n1,inconclusive: 18%
19,O=C1Nc2cc(Cl)c(Cl)cc2N(O)N1c1cccc(Br)c1,inconclusive: 10%
20,COC(=O)[C@@H]1Cc2ncn(Cc3ccc(Cl)cc3)c2CN1C(=O)c1ccc(OC)cc1,inconclusive: 22%
21,COc1ccc(OC)c(NC(=O)C(=O)O)c1,inactive
22,c1ccc(Nc2nc3nonc3nc2N2CCOCC2)cc1,inconclusive: 11%
23,CCCCOC(=O)CSC1=C(C#N)C(c2ccc(Cl)cc2Cl)CC(=O)N1 (stereo not given),inactive
24,CC(C)N(C(=O)c1ccc(C(=O)Nc2ccc(Br)cc2)cc1)C(C)C,inconclusive: 10%

row,Compound,inhibition
1,COc1ccc(NC(=O)Cn2c(=O)[nH]c3ccsc3c2=O)cc1,inactive
2,O=c1[nH]cnc2c1C(c1ccccc1)c1c(nc[nH]c1=O)O2,inconclusive: 23%
3,CCc1cn[nH]c1C1CCN(C(=O)c2cc3sccc3[nH]2)CC1,inactive
4,CC(C)C(=O)N1c2ccccc2NC2=C(C(=O)CCC2)C1c1ccccc1 (stereo not given),inconclusive: 28%
5,O=C(c1ccco1)C(O)c1ccco1 (stereo not given),inconclusive: 27%
6,O=[N+]([O-])c1cc([N+](=O)[O-])c2c(OCc3ccccc3)nsc2c1,active: 43%
7,O=S(=O)(Nc1ccccc1O)c1ccccc1,inactive
8,Cc1ccc(C(=O)N(c2ccc(F)cc2)C2C=CS(=O)(=O)C2)cc1C (stereo not given),inactive
9,O=C(CN1CCN(Cc2ccc(F)cc2Cl)S1(=O)=O)Nc1cccc(F)c1,inconclusive: 13%
10,O=C(CSc1nnc2sc3ccccc3n12)c1ccc2c(c1)OCO2,inactive
11,CCN(CC)c1ccc(NC(=O)C2CCCCC2C(=O)O)cc1 (stereo not given),inconclusive: 27%
12,COc1ccc(C(=O)CC2(O)C(=O)N(CCc3ccccc3)c3ccccc32)cc1[N+](=O)[O-] (stereo not given),inconclusive: 19%
13,CCc1cccc(NC(=O)CCC(=O)N(C)Cc2nc3ccccc3n2C)c1,inconclusive: 20%
14,Cc1ccnc(CC(C)N(C)C(=O)c2nccc3ccccc23)c1 (stereo not given),inconclusive: 19%
15,Cc1ccc(-c2cc(C(=O)O)c3cc4c(C(=O)O)cc(-c5ccc(C)o5)nc4cc3n2)o1,active: 91%
16,O=C1NC(=O)/C(=C\c2cccc(OCc3ccc([N+](=O)[O-])cc3)c2)S1,inactive
17,CCCn1c(=O)c2c(nc3n2CCN3c2ccc(C)c(C)c2)n(C)c1=O,inconclusive: 13%
18,CC1CCC2C(=O)N(c3ccc(Cl)cc3O)C(=O)C2C1 (stereo not given),inactive
19,CC1=CC(C)(C)N(C(=O)C(C)N2C(=O)c3ccccc3C2=O)c2cc(C)c(C)cc21 (stereo not given),inactive
20,COc1cc(NC(=O)O[C@@H]2CO[C@H]3[C@@H]2OC[C@@H]3NC(=O)COc2ccccc2)cc(OC)c1,inactive
21,CCCc1nnc2sc(Cc3ccc4nc(C)[nH]c4c3)nn12,inconclusive: 20%
22,O=C(NCCCO)c1cccc([N+](=O)[O-])c1,inconclusive: 10%
23,Cc1cc(C)cc(N2CCC(N3CCN(Cc4cccc(C)n4)C(CCO)C3)CC2)c1 (stereo not given),inconclusive: 10%
24,CC(=O)N1CCc2c(sc(NC(=O)c3ccco3)c2-c2nc3ccccc3s2)C1,inconclusive: 16%

# In the list so far, 4 contain a CF3 group:
row,Compound,inhibition
11,COc1cccc(C2CC(=O)C3=C(C2)Nc2ccccc2NC3c2ccc(C(F)(F)F)cc2)c1 (stereo not given),inconclusive: 21%
16,CCOc1ccc(S(=O)(=O)Nc2c(Cl)cccc2C(F)(F)F)c2cccnc12,inactive
24,CCN(Cc1ccncc1)C(=O)CC1C(=O)NCCN1Cc1cccc(C(F)(F)F)c1 (stereo not given),inactive
5,COc1ccc2c(=O)c(-c3csc(C)n3)c(C(F)(F)F)oc2c1,inactive

# Following part

row,Compound,inhibition
1,COc1cccc(-n2c(C)nc3c(cnn3-c3ccccc3Cl)c2=O)c1,inactive
2,O=C1C2CCCN2C(c2ccccc2)N1c1ccc(Cl)c(Cl)c1 (stereo not given),inconclusive: 15%
3,O=C(/C=C/c1ccccc1)NCc1ccc2c(c1)OCO2,inconclusive: 29%
4,Cc1nc(-c2ccc(CNC(=O)c3cc(CC(C)C)nn3C)cc2)no1,inconclusive: 17%
5,Cc1csc(SCC(=O)NCC2Cc3cc(F)cc(-c4cccnc4)c3O2)n1 (stereo not given),inconclusive: 29%
6,COc1ccc2nc(N3CCCC(C(=O)NCCC(C)C)C3)sc2c1 (stereo not given),inconclusive: 11%
7,CC(C)N1CC(OCc2ccc(F)cc2)CN(C(=O)c2ccc(N3CCOCC3)cc2)CC1=O (stereo not given),inconclusive: 10%
8,CCOC(=O)c1sc(=NC(=O)c2ccc(OC(C)C)cc2)n(C)c1C,inconclusive: 14%
9,O=c1c2c3c(sc2nc2n1CCCC2)CCCCC3,inconclusive: 12%
10,O=C1C2C3c4ccccc4C([N+](=O)[O-])(c4ccccc43)C2C(=O)N1c1ccc(O)cc1 (stereo not given),inactive
11,O=C1N(Cc2ccc(F)cc2)CCCC1(O)CN1CCN(c2cnccn2)CC1 (stereo not given),inconclusive: 23%
12,COc1ccc2cnn(-c3nc4ccccc4[nH]3)c(=O)c2c1OC,inactive
13,CCCn1cc(SCC(=O)N2CCc3ccccc32)c2ccccc21,inconclusive: 13%
14,COCCOC(=O)c1c(C)oc2ccc(OC(=O)c3ccc(Br)cc3)cc12,inactive
15,CC(C)=CCN1CCN(Cc2cccc(-n3cccn3)c2)CC1CCO (stereo not given),inconclusive: 10%
16,COc1ccc(Br)cc1C(=O)Nc1ccc(F)cc1F,inconclusive: 15%
17,CN(C)c1ncccc1CNC(=O)CN1CCOc2ccccc2C1,inconclusive: 20%
18,CC(C)CCC1(C2CCNCC2)NC(=O)NC1=O (stereo not given),inconclusive: 17%
19,c1cnn(CC2CCN(c3ccc(-c4nc(C5CC5)no4)cn3)CC2)c1,inconclusive: 10%
20,Cc1ccc(-c2cc(O)c3c(c2)CN(C(=O)C(C)N2CCCC2=O)CCO3)cc1 (stereo not given),inconclusive: 15%
21,CCNC(=O)N1CCN(CCCC(c2ccc(F)cc2)c2ccc(F)cc2)CC1,inconclusive: 15%
22,CCOC(=O)C1(Cc2ccc(F)cc2F)CCCN(C(=O)Nc2ccc3c(c2)OCO3)C1 (stereo not given),inconclusive: 21%
23,O=C(Nc1ccc2c(c1)OCO2)c1cc(-c2cccc(Cl)c2)on1,inconclusive: 14%
